Consider 8 targets from the supplement of paper PMC12819154, “High-throughput peptide-centric local stability assay extends protein–ligand identification to membrane proteins, tissues and bacteria” (Nature Structural & Molecular Biology, 2025).

Sequences of proteins named here, by UniProt entry; tags and fusion partners are left off. A change or cut given only in a name is not applied to a line headed by its entry.
UniProt O70492, whole entry: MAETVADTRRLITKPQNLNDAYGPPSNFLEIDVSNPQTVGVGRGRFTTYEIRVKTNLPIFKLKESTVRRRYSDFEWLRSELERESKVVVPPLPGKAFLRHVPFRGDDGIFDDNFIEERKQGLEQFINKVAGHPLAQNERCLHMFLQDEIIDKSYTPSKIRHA
UniProt O70305: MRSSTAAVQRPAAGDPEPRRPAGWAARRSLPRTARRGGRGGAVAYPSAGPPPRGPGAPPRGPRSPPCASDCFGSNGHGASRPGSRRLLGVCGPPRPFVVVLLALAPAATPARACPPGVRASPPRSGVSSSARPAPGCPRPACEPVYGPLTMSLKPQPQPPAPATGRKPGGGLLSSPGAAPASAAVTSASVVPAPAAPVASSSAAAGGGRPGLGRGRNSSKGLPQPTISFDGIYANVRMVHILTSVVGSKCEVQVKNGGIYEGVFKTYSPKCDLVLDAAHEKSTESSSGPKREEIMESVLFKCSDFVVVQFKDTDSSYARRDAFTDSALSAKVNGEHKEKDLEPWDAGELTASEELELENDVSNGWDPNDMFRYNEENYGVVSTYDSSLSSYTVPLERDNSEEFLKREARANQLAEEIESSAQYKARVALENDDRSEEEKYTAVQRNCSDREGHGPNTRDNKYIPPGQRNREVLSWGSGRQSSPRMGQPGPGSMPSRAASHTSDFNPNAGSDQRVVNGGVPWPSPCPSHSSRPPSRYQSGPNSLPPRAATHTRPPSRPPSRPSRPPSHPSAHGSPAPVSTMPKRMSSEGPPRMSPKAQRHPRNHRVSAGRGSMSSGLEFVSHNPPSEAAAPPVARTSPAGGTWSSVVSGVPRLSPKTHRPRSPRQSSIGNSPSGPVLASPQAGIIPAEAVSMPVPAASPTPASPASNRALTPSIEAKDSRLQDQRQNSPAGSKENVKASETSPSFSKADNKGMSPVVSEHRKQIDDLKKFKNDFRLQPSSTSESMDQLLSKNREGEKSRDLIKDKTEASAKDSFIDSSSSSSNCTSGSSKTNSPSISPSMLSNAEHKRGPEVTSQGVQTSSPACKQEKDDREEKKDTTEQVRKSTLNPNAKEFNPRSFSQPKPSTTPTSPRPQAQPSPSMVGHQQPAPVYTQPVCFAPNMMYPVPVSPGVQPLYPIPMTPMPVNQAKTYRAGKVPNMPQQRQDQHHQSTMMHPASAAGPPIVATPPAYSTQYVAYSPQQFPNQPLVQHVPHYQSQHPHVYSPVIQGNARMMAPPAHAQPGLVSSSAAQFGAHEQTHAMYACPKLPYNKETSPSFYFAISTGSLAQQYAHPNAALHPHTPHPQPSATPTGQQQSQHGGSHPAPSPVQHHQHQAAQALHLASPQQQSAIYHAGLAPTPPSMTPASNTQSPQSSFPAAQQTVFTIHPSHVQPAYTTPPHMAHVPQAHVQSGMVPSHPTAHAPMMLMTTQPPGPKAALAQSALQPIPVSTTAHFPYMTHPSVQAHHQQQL
UniProt O70480: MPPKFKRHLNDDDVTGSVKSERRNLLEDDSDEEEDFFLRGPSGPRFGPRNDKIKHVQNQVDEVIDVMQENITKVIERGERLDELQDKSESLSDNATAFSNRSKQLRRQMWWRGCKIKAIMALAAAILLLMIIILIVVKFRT
UniProt O35594: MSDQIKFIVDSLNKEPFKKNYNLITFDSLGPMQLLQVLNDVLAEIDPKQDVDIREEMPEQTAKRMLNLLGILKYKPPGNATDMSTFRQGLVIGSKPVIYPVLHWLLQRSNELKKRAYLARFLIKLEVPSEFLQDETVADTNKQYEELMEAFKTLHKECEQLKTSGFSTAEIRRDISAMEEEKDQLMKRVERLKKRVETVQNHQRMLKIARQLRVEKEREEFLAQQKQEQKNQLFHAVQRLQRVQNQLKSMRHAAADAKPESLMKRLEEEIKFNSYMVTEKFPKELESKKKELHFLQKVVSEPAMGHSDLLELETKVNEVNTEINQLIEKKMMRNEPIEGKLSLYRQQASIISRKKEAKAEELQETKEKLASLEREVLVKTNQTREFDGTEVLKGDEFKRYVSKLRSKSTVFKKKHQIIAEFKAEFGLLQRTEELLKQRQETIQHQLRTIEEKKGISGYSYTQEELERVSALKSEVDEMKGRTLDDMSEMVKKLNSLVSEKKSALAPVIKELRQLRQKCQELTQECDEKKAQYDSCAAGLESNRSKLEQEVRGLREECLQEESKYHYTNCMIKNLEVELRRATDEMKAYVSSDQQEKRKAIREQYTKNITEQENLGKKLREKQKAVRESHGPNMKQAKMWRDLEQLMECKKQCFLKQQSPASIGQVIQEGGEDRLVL
UniProt O88487, whole entry: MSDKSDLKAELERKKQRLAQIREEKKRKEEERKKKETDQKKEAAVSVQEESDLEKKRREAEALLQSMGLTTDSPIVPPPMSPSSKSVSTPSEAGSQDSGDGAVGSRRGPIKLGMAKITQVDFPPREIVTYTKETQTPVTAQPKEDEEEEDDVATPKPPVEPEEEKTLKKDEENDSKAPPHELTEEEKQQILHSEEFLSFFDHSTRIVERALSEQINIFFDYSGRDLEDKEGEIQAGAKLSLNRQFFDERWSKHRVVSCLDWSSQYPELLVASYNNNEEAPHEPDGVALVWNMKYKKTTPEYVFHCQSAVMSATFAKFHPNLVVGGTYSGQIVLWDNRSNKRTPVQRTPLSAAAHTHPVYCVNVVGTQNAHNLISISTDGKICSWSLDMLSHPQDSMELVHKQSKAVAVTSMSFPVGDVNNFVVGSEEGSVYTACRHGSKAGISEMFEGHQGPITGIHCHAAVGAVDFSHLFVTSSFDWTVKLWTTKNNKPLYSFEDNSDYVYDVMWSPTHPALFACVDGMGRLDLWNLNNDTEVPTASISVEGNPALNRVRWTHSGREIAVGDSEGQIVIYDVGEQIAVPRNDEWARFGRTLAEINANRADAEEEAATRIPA
UniProt O70481: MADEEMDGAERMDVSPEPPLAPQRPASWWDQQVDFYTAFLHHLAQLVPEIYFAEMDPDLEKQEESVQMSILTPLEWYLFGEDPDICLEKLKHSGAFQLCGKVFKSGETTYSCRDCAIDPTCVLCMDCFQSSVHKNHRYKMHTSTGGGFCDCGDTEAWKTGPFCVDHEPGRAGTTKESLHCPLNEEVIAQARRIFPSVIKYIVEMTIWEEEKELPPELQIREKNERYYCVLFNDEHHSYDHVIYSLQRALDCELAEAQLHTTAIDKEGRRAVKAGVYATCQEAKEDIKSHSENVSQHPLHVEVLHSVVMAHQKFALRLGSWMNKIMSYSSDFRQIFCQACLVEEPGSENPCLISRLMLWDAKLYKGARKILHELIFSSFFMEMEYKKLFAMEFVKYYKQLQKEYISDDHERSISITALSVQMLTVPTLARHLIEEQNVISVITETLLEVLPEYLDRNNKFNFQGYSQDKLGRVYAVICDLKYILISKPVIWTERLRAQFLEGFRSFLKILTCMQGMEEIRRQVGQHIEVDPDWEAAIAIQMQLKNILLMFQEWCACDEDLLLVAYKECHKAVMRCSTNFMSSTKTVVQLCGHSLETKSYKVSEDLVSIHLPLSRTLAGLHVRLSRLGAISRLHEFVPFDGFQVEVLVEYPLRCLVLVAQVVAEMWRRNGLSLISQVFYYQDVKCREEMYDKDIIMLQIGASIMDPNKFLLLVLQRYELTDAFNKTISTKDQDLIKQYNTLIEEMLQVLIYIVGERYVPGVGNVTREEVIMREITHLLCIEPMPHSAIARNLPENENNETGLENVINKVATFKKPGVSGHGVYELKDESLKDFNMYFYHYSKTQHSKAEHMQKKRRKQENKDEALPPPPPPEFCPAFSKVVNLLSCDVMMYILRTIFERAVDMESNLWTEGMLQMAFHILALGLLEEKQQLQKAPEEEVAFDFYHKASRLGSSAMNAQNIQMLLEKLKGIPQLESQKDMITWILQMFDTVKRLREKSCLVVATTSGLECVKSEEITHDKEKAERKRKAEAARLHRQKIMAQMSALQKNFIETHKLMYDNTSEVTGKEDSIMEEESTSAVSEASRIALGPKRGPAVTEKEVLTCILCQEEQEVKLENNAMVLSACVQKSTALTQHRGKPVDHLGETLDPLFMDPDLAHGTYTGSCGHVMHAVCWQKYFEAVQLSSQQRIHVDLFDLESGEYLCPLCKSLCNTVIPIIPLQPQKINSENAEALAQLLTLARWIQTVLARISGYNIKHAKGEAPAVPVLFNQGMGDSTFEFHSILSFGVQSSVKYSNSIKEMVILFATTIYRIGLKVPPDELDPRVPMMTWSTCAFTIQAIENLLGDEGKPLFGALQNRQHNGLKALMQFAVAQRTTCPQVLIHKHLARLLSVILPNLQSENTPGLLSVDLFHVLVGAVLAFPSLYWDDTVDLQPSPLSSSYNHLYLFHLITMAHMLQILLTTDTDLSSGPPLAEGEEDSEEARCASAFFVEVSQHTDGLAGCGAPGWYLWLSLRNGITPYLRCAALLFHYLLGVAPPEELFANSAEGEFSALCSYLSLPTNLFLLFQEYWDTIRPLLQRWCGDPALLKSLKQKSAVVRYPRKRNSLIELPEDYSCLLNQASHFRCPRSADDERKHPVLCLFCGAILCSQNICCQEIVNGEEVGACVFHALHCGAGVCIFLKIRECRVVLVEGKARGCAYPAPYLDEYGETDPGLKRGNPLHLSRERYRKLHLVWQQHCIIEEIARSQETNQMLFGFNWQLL
UniProt O54879: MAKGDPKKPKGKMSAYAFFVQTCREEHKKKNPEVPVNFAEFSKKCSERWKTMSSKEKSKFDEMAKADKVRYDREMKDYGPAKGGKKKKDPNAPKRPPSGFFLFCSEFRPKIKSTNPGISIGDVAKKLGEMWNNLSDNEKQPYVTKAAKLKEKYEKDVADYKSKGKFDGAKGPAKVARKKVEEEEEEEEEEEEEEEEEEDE
UniProt O55091: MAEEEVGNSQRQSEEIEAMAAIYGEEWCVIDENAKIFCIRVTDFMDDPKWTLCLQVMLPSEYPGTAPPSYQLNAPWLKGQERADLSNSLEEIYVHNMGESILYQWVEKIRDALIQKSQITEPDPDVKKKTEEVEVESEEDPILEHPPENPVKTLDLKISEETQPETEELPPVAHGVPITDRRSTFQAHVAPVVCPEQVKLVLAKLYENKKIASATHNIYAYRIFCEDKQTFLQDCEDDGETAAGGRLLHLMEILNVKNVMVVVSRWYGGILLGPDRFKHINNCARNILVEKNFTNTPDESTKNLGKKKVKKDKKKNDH

The list shows a part of the results. Most values lie at the level of the controls, where differences are scatter.

Compound in the assay: CN[C@@H]1C[C@H]2O[C@@](C)([C@@H]1OC)n1c3ccccc3c3c4c(c5c6ccccc6n2c5c31)C(=O)NC4 [staurosporine]
Briefly: log2 fold change of tryptic peptide abundance, ligand vs vehicle (limited proteolysis) (log2 ratio); higher = more trypsin-susceptible (destabilized). The conditions noted are these: ligand concentration: 20 uM; sample: mouse liver crude lysate; replicate design: treated separately.
Turning to “UniProt O70492 (peptide sequence: GDDGIFDDNFIEERK, peptide start residue: 105)”, the log2 fold change stood at 0.289.
The same measure for “UniProt O70305 (peptide sequence: QNSPAGSKENVK, peptide start residue: 725)”: -0.411; for “UniProt O70480 (peptide sequence: HLNDDDVTGSVK, peptide start residue: 8)”: 0.0713; for “UniProt O35594 (peptide sequence: KMMRNEPIEGK, peptide start residue: 330)”: 0.0835.
The same measure for “UniProt O88487 (peptide sequence: TLKKDEENDSK, peptide start residue: 166)”: 0.352; for “UniProt O70481 (peptide sequence: KPGVSGHGVYELK, peptide start residue: 812)”: -0.411.
The same measure for “UniProt O54879 (peptide sequence: STNPGISIGDVAK, peptide start residue: 113)”: 0.135; for “UniProt O55091 (peptide sequence: LLHLMEILNVK, peptide start residue: 247)”: 0.277.
